The values below come from the supplement of paper PMC8728848.

Common to all, as to test: glycan array binding signal (z-score within array); higher = stronger binding
Conditions in all cases: glycan notation: IUPAC condensed, linker removed

Assay [1] concerns the target Gal(b1-4)GlcNAc(b1-3)Gal(b1-4)GlcNAc(b1-3)Gal(b1-4)GlcNAc(b1-2)Man(a1-3)[Gal(b1-4)GlcNAc(b1-3)Gal(b1-4)GlcNAc(b1-3)Gal(b1-4)GlcNAc(b1-2)Man(a1-6)]Man(b1-4)GlcNAc(b1-4)GlcNAc. The procedure, abridged:
(§1)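 The binding signal is a Z-score computed within each array. Data were drawn from 3228 arrays in the Consortium for Functional Glycomics database, restricted to those with a known protein sequence. Scores were averaged over arrays of the same protein sequence at different concentrations or buffers, and over linkers, and negative values can be taken as non-binding.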

The target in assay [2] is Gal(b1-4)GlcNAc(b1-3)Gal(b1-4)GlcNAc(b1-3)Gal(b1-4)GlcNAc(b1-2)Man(a1-3)[Gal(b1-4)GlcNAc(b1-3)Gal(b1-4)GlcNAc(b1-3)Gal(b1-4)GlcNAc(b1-2)Man(a1-6)]Man(b1-4)GlcNAc(b1-4)[Fuc(a1-6)]GlcNAc. The procedure, abridged:
as §1

The target in assay [3] is Gal(b1-4)GlcNAc(b1-3)Gal(b1-4)GlcNAc(b1-3)Gal(b1-4)GlcNAc(b1-2)[Gal(b1-4)GlcNAc(b1-3)Gal(b1-4)GlcNAc(b1-3)Gal(b1-4)GlcNAc(b1-6)]Man(a1-6)[Gal(b1-4)GlcNAc(b1-3)Gal(b1-4)GlcNAc(b1-3)Gal(b1-4)GlcNAc(b1-2)Man(a1-3)]Man(b1-4)GlcNAc(b1-4)[Fuc(a1-6)]GlcNAc. The procedure, abridged:
as §1

Assay [4] has as its target Gal(b1-4)GlcNAc(b1-3)Gal(b1-4)GlcNAc(b1-3)Gal(b1-4)GlcNAc(b1-3)Gal(b1-4)GlcNAc(b1-2)Man(a1-3)[Gal(b1-4)GlcNAc(b1-3)Gal(b1-4)GlcNAc(b1-3)Gal(b1-4)GlcNAc(b1-3)Gal(b1-4)GlcNAc(b1-2)Man(a1-6)]Man(b1-4)GlcNAc(b1-4)GlcNAc. The method in brief: as §1
Assay [5] deals with Gal(b1-4)GlcNAc(b1-3)Gal(b1-4)GlcNAc(b1-3)Gal(b1-4)GlcNAc(b1-3)Gal(b1-4)GlcNAc(b1-2)Man(a1-3)[Gal(b1-4)GlcNAc(b1-3)Gal(b1-4)GlcNAc(b1-3)Gal(b1-4)GlcNAc(b1-3)Gal(b1-4)GlcNAc(b1-2)Man(a1-6)]Man(b1-4)GlcNAc(b1-4)[Fuc(a1-6)]GlcNAc. The procedure, abridged: as §1
Assay [6] has as its target Gal(b1-4)GlcNAc(b1-3)Gal(b1-4)GlcNAc(b1-3)Gal(b1-4)GlcNAc(b1-3)Gal(b1-4)GlcNAc(b1-2)[Gal(b1-4)GlcNAc(b1-3)Gal(b1-4)GlcNAc(b1-3)Gal(b1-4)GlcNAc(b1-3)Gal(b1-4)GlcNAc(b1-6)]Man(a1-6)[Gal(b1-4)GlcNAc(b1-3)Gal(b1-4)GlcNAc(b1-3)Gal(b1-4)GlcNAc(b1-3)Gal(b1-4)GlcNAc(b1-2)Man(a1-3)]Man(b1-4)GlcNAc(b1-4)[Fuc(a1-6)]GlcNAc. The method in brief: as §1
Assay [7] deals with Gal(b1-4)GlcNAc(b1-3)Gal(b1-4)GlcNAc(b1-3)Gal(b1-4)GlcNAc(b1-3)Gal(b1-4)GlcNAc(b1-3)Gal(b1-4)GlcNAc(b1-2)Man(a1-3)[Gal(b1-4)GlcNAc(b1-3)Gal(b1-4)GlcNAc(b1-3)Gal(b1-4)GlcNAc(b1-3)Gal(b1-4)GlcNAc(b1-3)Gal(b1-4)GlcNAc(b1-2)Man(a1-6)]Man(b1-4)GlcNAc(b1-4)GlcNAc. The procedure, abridged: as §1
For assay [8], the target named is Gal(b1-4)GlcNAc(b1-3)Gal(b1-4)GlcNAc(b1-3)Gal(b1-4)GlcNAc(b1-3)Gal(b1-4)GlcNAc(b1-3)Gal(b1-4)GlcNAc(b1-2)Man(a1-3)[Gal(b1-4)GlcNAc(b1-3)Gal(b1-4)GlcNAc(b1-3)Gal(b1-4)GlcNAc(b1-3)Gal(b1-4)GlcNAc(b1-3)Gal(b1-4)GlcNAc(b1-2)Man(a1-6)]Man(b1-4)GlcNAc(b1-4)[Fuc(a1-6)]GlcNAc. The procedure, abridged: as §1
In assay [9] the target is Gal(b1-4)GlcNAc(b1-3)Gal(b1-4)GlcNAc(b1-3)Gal(b1-4)GlcNAc(b1-3)Gal(b1-4)GlcNAc(b1-3)Gal(b1-4)GlcNAc(b1-2)[Gal(b1-4)GlcNAc(b1-3)Gal(b1-4)GlcNAc(b1-3)Gal(b1-4)GlcNAc(b1-3)Gal(b1-4)GlcNAc(b1-3)Gal(b1-4)GlcNAc(b1-6)]Man(a1-6)[Gal(b1-4)GlcNAc(b1-3)Gal(b1-4)GlcNAc(b1-3)Gal(b1-4)GlcNAc(b1-3)Gal(b1-4)GlcNAc(b1-3)Gal(b1-4)GlcNAc(b1-2)Man(a1-3)]Man(b1-4)GlcNAc(b1-4)[Fuc(a1-6)]GlcNAc. The procedure, abridged: as §1

Assay [10] has as its target Gal(b1-4)GlcNAc(b1-3)Gal(b1-4)GlcNAc(b1-3)Gal(b1-4)GlcNAc(b1-3)Gal(b1-4)GlcNAc(b1-3)Gal(b1-4)GlcNAc(b1-3)Gal(b1-4)GlcNAc(b1-2)Man(a1-3)[Gal(b1-4)GlcNAc(b1-3)Gal(b1-4)GlcNAc(b1-3)Gal(b1-4)GlcNAc(b1-3)Gal(b1-4)GlcNAc(b1-3)Gal(b1-4)GlcNAc(b1-3)Gal(b1-4)GlcNAc(b1-2)Man(a1-6)]Man(b1-4)GlcNAc(b1-4)GlcNAc. The method in brief: as §1
Assay [11] addresses Gal(b1-4)GlcNAc(b1-3)Gal(b1-4)GlcNAc(b1-3)GalNAc. The procedure, abridged: as §1
In assay [12] the target is Gal(b1-4)GlcNAc(b1-3)Gal(b1-4)GlcNAc(b1-3)[Gal(b1-4)GlcNAc(b1-3)Gal(b1-4)GlcNAc(b1-6)]GalNAc. The procedure, abridged: as §1
Assay [13] concerns the target Gal(b1-4)GlcNAc(b1-3)Gal(b1-4)GlcNAc(b1-6)[Gal(b1-3)]GalNAc. The procedure, abridged: as §1
For assay [14], the target named is Gal(b1-4)GlcNAc(b1-3)Gal(b1-4)[Fuc(a1-3)]GlcNAc(b1-3)Gal(b1-4)[Fuc(a1-3)]GlcNAc. The method in brief:
as §1

Assay [15] deals with Gal(b1-4)GlcNAc(b1-3)GalNAc. The method in brief: as §1
The target in assay [16] is Gal(b1-4)GlcNAc(b1-3)[Fuc(a1-3)GlcNAc(b1-6)]Gal(b1-4)Glc. The method in brief:
as §1

Assay [17] has as its target Gal(b1-4)GlcNAc(b1-3)[Gal(b1-4)GlcNAc(b1-6)]Gal(b1-4)GlcNAc. The method in brief:
as §1

Assay [18] deals with Gal(b1-4)GlcNAc(b1-3)[GlcNAc(b1-6)]Gal(b1-4)GlcNAc. The method in brief: as §1
Assay [19] deals with Gal(b1-4)GlcNAc(b1-6)Gal(b1-4)GlcNAc. The procedure, abridged: as §1

Some of the results follow.

B1: PX14375A-pdi-503-28-503 (Parabacteroides distasonis) (protein)
chain: PLGSPEAGDISEERQAFLRLTAVYSVMKDFRYTWSMQCFGDVLSNDATYSGSSNDAQTFTLLENYQYQADHTEILNKYRYSYQCINKANLFIRDMEMADDALFSKYDKEQMIGEAKFIRAYTYFELVKTFGGVPCYTGVLDLDHERLGRASVEEIYSVIEQDLNDAVSVLPKKSEVANYESSYAGRITKGAAIAMQTRIYLYEKKYDEVKKAFEKFQNECGGEYSLVAPEDYTWQFSLDGEHCSSSILEVNMYNSSTQSSYNVNNGNRHVLMSMPRNMTIGFGCAQPTQALADAYDAEGDVIRKKTTLLSTEEAIEIETAAKGDVAPVTDDRTGWYNRKLYLAPGQREENRGNNQPTNLRLIRLAEVYLNYAEACYFSGDIANAQKYLNEVRSHVNLAPKNHTGSQLFEDIMNERHLEFGMEGFRFFDVVRVGWGEKVFNGTKKAEFGAKTPFSAGAEVLPIPQTEIDISDGLITN
For B1, the “glycan array binding signal (z-score)” value in assay [1] was 2.49; in assay [2] it was 0.437; in assay [3] it was 0.285; in assay [4], -0.168; in assay [5] it was -0.111; in assay [6], 0.237. Moreover, the “glycan array binding signal (z-score)” value is 0.24 in assay [7]; 0.535 in [8]; 0.135 in assay [9]; -0.535 in [10]; -0.556 in [11]; 0.529 in assay [12]. In addition, the “glycan array binding signal (z-score)” value in assay [13] is -0.143; in assay [14], -0.205; in assay [15], -0.462; in assay [16], -0.097; in [17], 0.207; in [18], -0.288. Moreover, the “glycan array binding signal (z-score)” value in [19] was 0.408.
